Results are given in words; binding and its absence hold for the method and conditions named. Some entries that bind do so weakly or less than the wild type. Each block holds one binder with its values, some of them ahead of it.
Columns and labels:
[1] = molecular target: recombinant human EMR1 (human) (UniProt Q14246); assay: ELISA on recombinant human EMR1
[2] = molecular target: human EMR1-Fc fusion protein (human) (UniProt Q14246); assay: ELISA
[3] = molecular target: recombinant human EMR1 (human) (UniProt Q14246); assay: Western blot under reducing conditions

The chains behind the UniProt entries cited, without tags or fusion partners. Residues count along the entry.
UniProt Q14246, residues 21-599: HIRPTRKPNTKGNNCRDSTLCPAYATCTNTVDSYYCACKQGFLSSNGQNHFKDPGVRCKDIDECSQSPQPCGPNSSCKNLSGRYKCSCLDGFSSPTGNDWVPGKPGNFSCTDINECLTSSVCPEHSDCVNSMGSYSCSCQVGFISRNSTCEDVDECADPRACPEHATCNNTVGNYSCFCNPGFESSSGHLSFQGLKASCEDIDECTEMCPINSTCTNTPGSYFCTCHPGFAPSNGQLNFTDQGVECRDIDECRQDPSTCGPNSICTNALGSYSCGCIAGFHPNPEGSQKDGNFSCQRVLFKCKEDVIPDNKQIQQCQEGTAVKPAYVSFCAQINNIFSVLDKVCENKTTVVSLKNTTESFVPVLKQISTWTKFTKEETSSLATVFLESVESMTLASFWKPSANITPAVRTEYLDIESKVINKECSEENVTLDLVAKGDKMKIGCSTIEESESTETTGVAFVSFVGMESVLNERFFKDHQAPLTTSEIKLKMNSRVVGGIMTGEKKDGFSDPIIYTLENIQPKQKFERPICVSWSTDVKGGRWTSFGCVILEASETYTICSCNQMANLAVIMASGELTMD

- binding [1]: binds
B1: monoclonal antibody 19-1E7 (antibody, V domains shown)
VH: QVQLKESGPGLVAPSQSLSITCTVSGFSLTNFGIHWVRQPPGKGLEWLGVIWSGGGTNYNSALMSRLSISKDNSKSQVFLKMNSLQTDDTAIYYCVSIYYRGFDSWGQGTTLTVSS
VL: DVFMTQAPLSLPVSLGDQASISCRSSQSIVHSNGNTYLEWYLQKPGQSPKLLIYRVSNRFSGVPDRFSGSGSGTDFTLKISRVEAEDLGVYYCFQGSHVPLTFGAGTRLELK
notes: Murine hybridoma antibody raised against human EMR1-Fc; Hybridoma supernatant was used in the screening

- binding [2]: binds
B2: EMS Fab (Fab, V domains shown)
VH: QVQLKESGPGLVAPSQSLSITCTVSGFSLTNFGIHWVRQPPGKGLEWLGVIWSGGGTNYNSALMSRLSISKDNSKSQVFLKMNSLQTDDTAIYYCVSIYYRGFDSWGQGTTLTVSS
VL: DVFMTQAPLSLPVSLGDQASISCRSSQSIVHSNGNTYLEWYLQKPGQSPKLLIYRVSNRFSGVPDRFSGSGSGTDFTLKISRVEAEDLGVYYCFQGSHVPLTFGAGTRLELK

- binding [3]: binds
B3: chimeric 19-1E7 IgG1k antibody (c1E7) (antibody, V domains shown)
VH: QVQLKESGPGLVAPSQSLSITCTVSGFSLTNFGIHWVRQPPGKGLEWLGVIWSGGGTNYNSALMSRLSISKDNSKSQVFLKMNSLQTDDTAIYYCVSIYYRGFDSWGQGTTLTVSS
VL: DVFMTQAPLSLPVSLGDQASISCRSSQSIVHSNGNTYLEWYLQKPGQSPKLLIYRVSNRFSGVPDRFSGSGSGTDFTLKISRVEAEDLGVYYCFQGSHVPLTFGAGTRLELK
notes: 19-1E7 variable regions combined with human gamma-1 Fc and kappa constant regions (IgG1 kappa); Made in fucosylated (CHOK1 SV) and non-fucosylated (MS704-PF) forms; also called chimeric 1E7
